Results on 61 compounds are retold here after PubChem BioAssay AID819 (Columbia University Molecular Screening Center, 2007).

Molecules are shown by their SMILES. This is one part of the list.

The nature of this assay: enhancers of NFkB p65 translocation in HUVEC – imaging, IL-1B stimulus, high-content imaging, primary screen (AID 819). The conditions noted are these: HUVEC IL-1B NFkB p65 nuclear translocation imaging; cells passing quality filter; at 2 µM; stronger effect = lower value.
For `Cc1nn(-c2ccccc2)c2c1P(=O)(N1CCOCC1)N(C)C(c1ccccc1)=N2` (stereo unspecified), the cell count is 148. For `COc1ccccc1OP(C)(=O)Nc1c(C)cccc1C` (stereo unspecified) the value was 168; for `O=P1(Nc2ncccn2)COc2ccccc2OC1`, 115; for `Cc1ccc(OCC(=O)OC2CN3CCC2CC3)cc1` (stereo unspecified), 150. For `O=P1(Nc2ccc(Br)cn2)COc2ccccc2OC1`, the cell count was determined as 100. Regarding `O=P1(Nc2ccccn2)COc2ccccc2OC1`, the cell count worked out at 133. On to `Clc1n[nH]nc1-c1nn[nH][15n]1`, for which the cell count turned out to be 85. For `Cc1nc2ccc3ccccc3c2s1.O=[N+]([O-])c1cc([N+](=O)[O-])c(O)c([N+](=O)[O-])c1` the value was 137; for `CC1(CBr)Cn2c(nc3ccccc3c2=O)S1` (stereo unspecified), 80. For `Cc1cccc(OCC(=O)OC2CN3CCC2CC3)c1` (stereo unspecified) the value was 64; for `Cc1cc(C)cc(OP(C)(=O)Nc2ccccn2)c1` (stereo unspecified), 116; for `Cc1ccc(C)c(NP(C)(=O)Oc2ccccc2)c1` (stereo unspecified), 120. For `CCOP1(=S)c2c(C)nn(CCC#N)c2N=C(c2ccccc2F)N1C` (stereo unspecified) the value was 140.

For `CCOP1(=S)c2c(C)nn(CCC#N)c2N=C(c2ccc(F)cc2)N1C` (stereo unspecified), the cell count is 181.

For `O=[N+]([O-])c1ccc2c(c1)nnn2O`, the cell count worked out at 168. As for `ClCCSc1nnc(-c2cccnc2)o1`, the cell count stood at 158. For `COc1ccc(OP(C)(=O)Nc2cccc(F)c2)cc1` (stereo unspecified) the value was 169; for `CCN(CC)C(=S)SC(NC=O)C(Cl)(Cl)Cl` (stereo unspecified), 210; for `O=C(OC1CN2CCC1CC2)C12CC3CC(CC(C3)C1)C2` (stereo unspecified), 101. For the compound `COP1(=S)c2c(C)nn(CCC#N)c2N=C(c2ccc(F)cc2)N1C` (stereo unspecified), the cell count is 168. For `CP(=O)(NC(=O)Nc1ccccc1)Oc1ccccc1` (stereo unspecified) the value was 159. Consider `O=C(COc1ccccc1)OC1CN2CCC1CC2` (stereo unspecified), for which the cell count stood at 171. For `CCC(C)N(CC(C)C)C(=S)SC(NC(C)=O)C(Cl)(Cl)Cl` (stereo unspecified) the value was 131; for `CP(=O)(Nc1ccccn1)Oc1ccc(Cl)cc1` (stereo unspecified), 194; for `CP(=S)(Nn1cnnc1)Oc1ccccc1` (stereo unspecified), 158. For `CP(=O)(OC12CC3CC(CC(C3)C1)C2)OC12CC3CC(CC(C3)C1)C2` the value was 161. For `CCN(CC)CC(O)COC(=O)C(O)(c1ccccc1)C1CCCCC1` (stereo unspecified) the value was 121. For `CCc1nc2c(n1)c1c(non1O)c1c2no[n+]1[O-]`, the cell count worked out at 86. For `CP(=O)(Oc1ccccc1)N1CCOC1=O` (stereo unspecified) the value was 185; for `CC(=O)N1C2C3N(C(C)=O)C1C1N(C(C)=O)C(C(N1C(C)=O)N3C(C)=O)N2C(C)=O`, 175; for `O=[N+]([O-])c1cccc2n[nH]nc12`, 114. For `COc1ccccc1OP(C)(=O)Nc1c(C)n(C)n(-c2ccccc2)c1=O` (stereo unspecified) the value was 137; for `CP(=O)(Nc1ccc(Cl)cc1)Oc1ccc(F)cc1` (stereo unspecified), 70; for `CC(C)(C)c1ccc(OP(C)(=O)O)cc1`, 191. In the case of `CC1CCN(C(=O)Oc2c(Cl)cc(Cl)c3cccnc23)CC1`, the cell count turned out to be 148. For `CN1CCCC(OC(=O)C(c2ccccc2)c2ccccc2)C1` (stereo unspecified) the value was 202; for `CN(C)CCOC(=O)C(O)(c1ccccc1)C1CCCC1` (stereo unspecified), 199; for `COc1ccc(OP(C)(=O)Nc2ccccn2)cc1` (stereo unspecified), 194. For `Cc1c2non([O-])c-2c(C)[n+](=O)[n+]1[O-]` the value was 217; for `Oc1ccccc1CNc1ccccn1`, 161; for `Cc1c(NP(C)(=O)Oc2ccc(C(C)C)cc2)c(=O)n(-c2ccccc2)n1C` (stereo unspecified), 150.

Turning to `CC(C)CC(=O)NC(Sc1ccc(Cl)cc1)C(Cl)(Cl)Cl` (stereo unspecified), the cell count amounted to 102.

As for `CCc1ccc(OP(C)(=O)O)cc1`, the cell count was 66. For `COc1ccccc1OP(C)(=O)Nc1ccc(C)cc1C` (stereo unspecified) the value was 121; for `CP(=O)(Nc1ccccn1)Oc1ccccc1` (stereo unspecified), 179. For `COc1ccccc1OP(C)(=O)Nc1ccc(C)c(C)c1` (stereo unspecified) the value was 184; for `CCOP(=O)(Nc1ccccc1)OCC`, 165; for `Cc1nc2ccc3ccccc3c2o1.O=[N+]([O-])c1cc([N+](=O)[O-])c(O)c([N+](=O)[O-])c1`, 184. For `CCOC(=O)NC(Sc1ccccc1)C(Cl)(Cl)Cl` (stereo unspecified) the value was 124; for `CCC(=O)N1C2C3N(C(=O)CC)C1C1N(C(=O)CC)C(C(N1C(=O)CC)N3C(=O)CC)N2C(=O)CC`, 189; for `CCN(CC)CCCOC(=O)C(O)(c1ccccc1)C1CCCCC1` (stereo unspecified), 94. Take `COC(=O)c1cc2c(s1)N=C(c1ccccc1)N(C)P2(=O)N1CCOCC1` (stereo unspecified): the cell count came out at 86. For `CP(=O)(Nc1ccccc1)Oc1ccc(F)cc1` (stereo unspecified) the value was 49. For `O=P1(Nc2nc3ccc(Cl)cc3s2)COc2ccccc2O1` (stereo unspecified) the value was 88; for `CP(=O)(Nc1ccccc1F)Oc1ccccc1` (stereo unspecified), 187. For `O=P(Nc1nccs1)(c1ccccc1)c1ccccc1` the value was 199; for `c1nnnn1CCn1cnnn1`, 196. Regarding `CCOP(C)(=S)SCC(=O)NC(C)(CC)C(=O)O` (stereo unspecified), the cell count amounted to 155.

As to `CP(=O)(Nc1ccc2c(c1)OCCO2)Oc1ccccc1` (stereo unspecified), the cell count came out at 125. For `CN(C)CCOC(=O)C(O)(c1ccccc1)C1CCCCC1` (stereo unspecified) the value was 121; for `O=C(OC1CN2CCC1CC2)c1cccc(Cl)c1` (stereo unspecified), 147.
